Laboratory results published in publication PMC10852281.
Substitutions are numbered along the chain they refer to. Results are given in words; binding and its absence hold for the method and conditions named. In cells and extracts the contact can be indirect. Some results given as binding are weak or reduced against the parent protein; the word gives no strength. For some of these results: Sequences can lack the tags named with a protein. Blank lines part the entries; values can stand above or below the molecule they belong to.

What was measured:
HA-TXNIP-C247S = biological target: T1, HA-TXNIP-C247S (UniProt Q9H3M7); assay: co-IP; HEK293T cells transfected; HA-IP of HA-TXNIP constructs overnight at 4°C, protein A/G resin, washed 3 times with lysis buffer ('1% NP40 lysis buffer': 20 mM Tris7.5, 150 mM NaCl, 1% SDS, 1% deoxycholate); Western blot; in Fig 6I-J cells treated with H2O2 (30 μM, 300 μM, 1.5 mM) or NAC (2.5 μM, 5 μM, 10 μM) for 4 hrs
T1 sequence: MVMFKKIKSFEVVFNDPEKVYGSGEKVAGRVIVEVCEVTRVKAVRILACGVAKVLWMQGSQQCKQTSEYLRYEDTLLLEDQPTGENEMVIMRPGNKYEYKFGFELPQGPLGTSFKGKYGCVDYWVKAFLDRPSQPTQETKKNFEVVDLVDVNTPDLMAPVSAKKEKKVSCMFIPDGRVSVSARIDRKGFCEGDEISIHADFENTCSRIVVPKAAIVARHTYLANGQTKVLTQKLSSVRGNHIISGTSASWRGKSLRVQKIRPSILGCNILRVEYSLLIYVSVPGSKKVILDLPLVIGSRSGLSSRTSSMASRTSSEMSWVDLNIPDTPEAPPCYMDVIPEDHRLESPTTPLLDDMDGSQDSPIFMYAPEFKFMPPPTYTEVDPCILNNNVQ

[1] = biological target: T2, HA-TXNIP (thioredoxin-interacting protein, wild type), Q9H3M7; assay: as above; conditions: remark: other sources report otherwise
T2 chain: T1 sequence with S247C

[2] = biological target: T3, TXNIP (construct not told; SiMPull assay and the tests of Fig 2B / S2B Fig), Q9H3M7; assay: single-molecule pull-down (SiMPull); protein complexes from lysed cells immobilised onto a coverslip, analysed with a total internal reflection fluorescence microscope; conditions: remark: other sources report otherwise
T3 chain: T1 sequence with S247C

[3] = biological target: T4, TXNIP-VN (BiFC fusion), Q9H3M7; assay: split reporter; BiFC; HeLa cells co-expressing VN and VC fusions, green fluorescent signal by confocal microscopy, cells fixed with 4% PFA; conditions: remark: other sources report otherwise
T4 chain: T1 sequence with S247C

[4] = biological target: T5, HA-TXNIP (thioredoxin-interacting protein, wild type) (UniProt Q9H3M7); assay: co-IP; HEK293T cells transfected; HA-IP of HA-TXNIP constructs overnight at 4°C, protein A/G resin, washed 3 times with lysis buffer ('1% NP40 lysis buffer': 20 mM Tris7.5, 150 mM NaCl, 1% SDS, 1% deoxycholate); Western blot; in Fig 6I-J cells treated with H2O2 (30 μM, 300 μM, 1.5 mM) or NAC (2.5 μM, 5 μM, 10 μM) for 4 hrs
T5 sequence: T1 sequence with S247C

TXNIP-VN (BiFC fusion) = TXNIP-VN (BiFC fusion) (UniProt Q9H3M7); assay: split reporter; BiFC; HeLa cells co-expressing VN and VC fusions, green fluorescent signal by confocal microscopy, cells fixed with 4% PFA

- binding (HA-TXNIP-C247S): binds
Molecule: GLUT1 (no tag named) (from UniProt P11166 1-492)

- binding [1]: binds
B1: GLUT1-GFP, P11166 1-492 (protein)
chain: MEPSSKKLTGRLMLAVGGAVLGSLQFGYNTGVINAPQKVIEEFYNQTWVHRYGESILPTTLTTLWSLSVAIFSVGGMIGSFSVGLFVNRFGRRNSMLMMNLLAFVSAVLMGFSKLGKSFEMLILGRFIIGVYCGLTTGFVPMYVGEVSPTALRGALGTLHQLGIVVGILIAQVFGLDSIMGNKDLWPLLLSIIFIPALLQCIVLPFCPESPRFLLINRNEENRAKSVLKKLRGTADVTHDLQEMKEESRQMMREKKVTILELFRSPAYRQPILIAVVLQLSQQLSGINAVFYYSTSIFEKAGVQQPVYATIGSGIVNTAFTVVSLFVVERAGRRTLHLIGLAGMAGCAILMTIALALLEQLPWMSYLSIVAIFGFVAFFEVGPGPIPWFIVAELFSQGPRPAAIAVAGFSNWTSNFIVGMCFQYVEQLCGPYVFIIFTVLLVLFFIFTYFKVPETKGRTFDEIASGFRQGGASQSDKTPEELFHPLGADSQV

- binding [2]: binds
B2: GLUT1 (construct not told; SiMPull assay), P11166 1-492 (protein)
chain: B1 chain

- binding [3]: binds
B3: GLUT1-VC (BiFC fusion), P11166 1-492 (protein)
chain: B1 chain

- binding [4]: binds
B4: GLUT3-GFP (protein, UniProt P11169 1-496)
chain: MGTQKVTPALIFAITVATIGSFQFGYNTGVINAPEKIIKEFINKTLTDKGNAPPSEVLLTSLWSLSVAIFSVGGMIGSFSVGLFVNRFGRRNSMLIVNLLAVTGGCFMGLCKVAKSVEMLILGRLVIGLFCGLCTGFVPMYIGEISPTALRGAFGTLNQLGIVVGILVAQIFGLEFILGSEELWPLLLGFTILPAILQSAALPFCPESPRFLLINRKEEENAKQILQRLWGTQDVSQDIQEMKDESARMSQEKQVTVLELFRVSSYRQPIIISIVLQLSQQLSGINAVFYYSTGIFKDAGVQEPIYATIGAGVVNTIFTVVSLFLVERAGRRTLHMIGLGGMAFCSTLMTVSLLLKDNYNGMSFVCIGAILVFVAFFEIGPGPIPWFIVAELFSQGPRPAAMAVAGCSNWTSNFLVGLLFPSAAHYLGAYVFIIFTGFLITFLAFTFFKVPETRGRTFEDITRAFEGQAHGADRSGKDGVMEMNSIEPAKETTTNV

- binding (TXNIP-VN (BiFC fusion)): binds
B5: TXNIP-VN (BiFC fusion) (protein, UniProt Q9H3M7 1-391)
chain: T1 sequence with S247C

- binding [4]: binds
B6: GLUT4-GFP (protein, UniProt P14672 1-509)
chain: MPSGFQQIGSEDGEPPQQRVTGTLVLAVFSAVLGSLQFGYNIGVINAPQKVIEQSYNETWLGRQGPEGPSSIPPGTLTTLWALSVAIFSVGGMISSFLIGIISQWLGRKRAMLVNNVLAVLGGSLMGLANAAASYEMLILGRFLIGAYSGLTSGLVPMYVGEIAPTHLRGALGTLNQLAIVIGILIAQVLGLESLLGTASLWPLLLGLTVLPALLQLVLLPFCPESPRYLYIIQNLEGPARKSLKRLTGWADVSGVLAELKDEKRKLERERPLSLLQLLGSRTHRQPLIIAVVLQLSQQLSGINAVFYYSTSIFETAGVGQPAYATIGAGVVNTVFTLVSVLLVERAGRRTLHLLGLAGMCGCAILMTVALLLLERVPAMSYVSIVAIFGFVAFFEIGPGPIPWFIVAELFSQGPRPAAMAVAGFSNWTSNFIIGMGFQYVAEAMGPYVFLLFAVLLLGFFIFTFLRVPETRGRTFDQISAAFHRTPSLLEQEVKPSTELEYLGPDEND
